# Data: PubChem BioAssay AID652054 (National Center for Advancing Translational Sciences (NCATS), 2013)
# Sequences of proteins named here, by UniProt entry; tags and fusion partners are left off.
# UniProt P35462, whole entry, looked up: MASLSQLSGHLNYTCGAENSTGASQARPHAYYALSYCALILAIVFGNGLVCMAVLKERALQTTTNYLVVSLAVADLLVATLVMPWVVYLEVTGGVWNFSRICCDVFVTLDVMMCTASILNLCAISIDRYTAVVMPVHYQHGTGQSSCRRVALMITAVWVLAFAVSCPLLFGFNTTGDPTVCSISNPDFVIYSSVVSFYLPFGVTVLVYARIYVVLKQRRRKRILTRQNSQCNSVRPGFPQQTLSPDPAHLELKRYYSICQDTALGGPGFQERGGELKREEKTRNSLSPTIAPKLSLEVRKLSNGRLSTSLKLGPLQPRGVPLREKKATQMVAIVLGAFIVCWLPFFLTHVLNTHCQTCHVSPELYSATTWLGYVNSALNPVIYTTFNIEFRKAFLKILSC
# Screen size: about 360,000 compounds; about 9,100 (2.5%) were called active. The shares of active, inactive and inconclusive entries below differ from those in the screen. Rule as the data show it: active = max response below about -50%; inconclusive = no clear call, values can overlap the other calls; inactive = above that.
# Biological target: D(3) dopamine receptor (Homo sapiens) (UniProt P35462)
# Assay: qHTS of D3 Dopamine Receptor Antagonist: qHTS
# Settings: D3R cells, DiscoveRx beta-arrestin luminescence, antagonist mode; hits give low values
# How it was run: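 Cells expressing the human receptor were seeded at 1500 cells/well, incubated overnight at 37 degrees C in 5% CO2, then exposed to library compounds with dopamine controls for 90 minutes at 37 degrees C before luminescent detection.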
# % is scaled to controls: 0 for no effect and ±100 for the full control effect.
row,Structure (SMILES),"max response, negative = inhibition"
1,N#Cc1c2c(c(=S)n(-c3ccccc3)c1N)CCCC2,inconclusive: -39.6%
2,Cc1cc(-n2c(SCC(=O)Nc3ccc(Br)cc3)nc3n[nH]c(C)c3c2=N)ccc1Cl,inactive: -17.1%
3,Fc1ccc(NC(=S)NC2CC3CCCC(C2)N3Cc2cccs2)cc1 (stereo unspecified),active: -54.5%
4,Cc1cccnc1C(NC(=O)C1CCN(Cc2ccc(Cl)cc2)CC1)c1ccccc1 (stereo unspecified),active: -102%
5,COc1ccc(CC2(CO)CCN(Cc3cc4ccccc4o3)CC2)cc1,active: -56.2%
6,COC(=O)C1=C(COc2ccccc2)NC(=O)NC1c1ccc(Br)cc1 (stereo unspecified),inconclusive: -46.8%
7,Cc1[nH]c2ccccc2c1CCNC(=O)c1ccc2c(c1[N+](=O)[O-])C(=O)c1ccccc1C2=O,active: -85.2%
8,CC(=O)OCC(=O)N1N=C(c2ccc3ccccc3c2)CC1c1ccccc1 (stereo unspecified),inactive: 1.87%
9,CCCCNC(=O)C(CC)(ONc1ccccc1C(F)(F)F)c1ccccc1OC (stereo unspecified),inconclusive: -33%
10,CCOC(=O)C(C(=O)Nc1ccc(C)cc1)C1CCCCC1 (stereo unspecified),inactive: 0%
11,O=S(=O)(c1ccc2ccccc2c1)N1CCN(C(=S)Nc2ccc(F)c(Cl)c2)CC1,inconclusive: -31.6%
12,Cc1ccc(NC(=O)c2ccc(F)c(S(=O)(=O)N3CCOCC3)c2)cc1F,inconclusive: -35.2%
13,Cn1cnnc1Sc1ccc(S(C)(=O)=O)cc1[N+](=O)[O-],active: -78.8%
14,C=CCOc1cccc(C2C(C(=O)c3ccc(C)o3)=C(O)C(=O)N2CCN(C)C)c1 (stereo unspecified),active: -63.5%
15,CCN1C(=O)c2cccc3c(S(=O)(=O)N(C(=O)c4cccnc4)c4ccc(OC)cc4)ccc1c23,inactive: 3.76%
16,CSc1nc(-c2ccc(N(C)C)cc2)c(C#N)c(=O)n1C,inconclusive: -30.1%
17,Cn1nnnc1SCC(=O)NNC(=O)c1ccc(F)cc1,active: -56.6%
18,CCC(=O)NC(=S)Nc1ccc(NC(=O)c2ccc(Br)o2)cc1,inactive: -2.1%
19,O=C(C1CCCCN1S(=O)(=O)c1ccccc1[N+](=O)[O-])N1CCCC1 (stereo unspecified),active: -53.3%
20,CC(=O)Oc1ccc(C(=O)Nc2cccc(NC(=O)c3ccco3)c2)cc1,active: -76.1%
21,COc1cccc2c1NC(C(=O)O)C1CC=CC21 (stereo unspecified),inactive: 5.76%
22,Cc1noc(C)c1C(=O)NCc1cccs1,inactive: -26.5%
23,c1ccc(-c2csc(CN3CCCCC3)n2)cc1,active: -50.4%

row,Structure (SMILES),"max response, negative = inhibition"
1,COc1cc(CNCc2ccccn2)ccc1OCc1ccccc1Cl,inconclusive: -37.8%
2,COCCn1c(SCC(=O)c2ccc(Cl)cc2)nnc1C(C)C,active: -69.5%
3,CCCCNCC1C(Oc2ccc(Cl)cc2)C(=O)N1c1ccccc1C (stereo unspecified),inconclusive: -47.8%
4,CNC(=S)N(Cc1ccc(OC)cc1)C1CC(=O)N(c2ccc(OC)cc2)C1=O (stereo unspecified),inconclusive: -43.1%
5,CSc1nsc(SCC(=O)Nc2ccc(F)cc2)n1,inactive: -9.63%
6,CC(C)(C)c1ccc(-c2nnc(SCCC#N)n2C2CCCC2)cc1,inconclusive: -33.3%
7,COc1ccccc1-c1cc(C(=O)N/N=C/c2ccc(C)o2)c2ccccc2n1,inconclusive: -44.7%
8,O=C(O)CCCCCN1C(=O)CSC1=S,inactive: 0%
9,COc1cc(C2CC(=O)Oc3cc(C)cc(C)c32)cc(OC)c1OC (stereo unspecified),inactive: -17.4%
10,COc1ccc(CCC(=O)OCc2csc(CC(=O)Nc3ccc(C)cc3)n2)cc1OC,inconclusive: -32.7%
11,CCOC(=O)c1cccc(N2C(=O)Nc3ccccc3N2O)c1,inconclusive: -38.3%
12,Cn1c(=O)[nH]c(=O)c2c1nc(Br)n2CCOc1ccccc1,active: -53.5%
13,Cc1ccc(Cc2c(C3CCCCC3)nc3ccc(Cl)cn23)cc1,inactive: 20.8%
14,COCCCn1c(=N)c(C(=O)NCC2CCCO2)cc2c(=O)n3ccccc3nc21 (stereo unspecified),inactive: 0%
15,COc1cc(/C=C/C(=O)OCC(=O)c2ccc(OC(F)F)cc2)ccc1O,inconclusive: -33.7%
16,Cc1occc1C(=O)n1nnc2ccccc21,inconclusive: -47.4%
17,O=C(NCCC1=CCCCC1)C(=O)NCC(c1ccco1)N1CCN(c2ccccc2)CC1 (stereo unspecified),inconclusive: -36.4%
18,Cc1ccc(OCCn2cc(C=O)c3ccccc32)cc1,inactive: 0%
19,Cc1ccc(C2=NN(C(=O)CCl)C(c3ccco3)C2)o1 (stereo unspecified),inactive: -9.42%
20,O=C(c1c(F)cccc1F)N1CCN(CCOc2ccccc2)CC1,inconclusive: -41.1%
21,CC(C)(C)C(=O)Nc1nnc(-c2ccncc2)o1,inactive: 3.35%
22,O=C(OC1CC2CC1[C@H]1CCCCN1C2=O)N1CCOCC1 (stereo partly specified),inactive: 3.81%
23,CCN1CCN(c2cc(C)c3cc(NC(=O)CCC(=O)N4CCN(c5ccccc5OC)CC4)ccc3n2)CC1,inconclusive: -41%

# Seven compounds drawn at random from those above:
row,Structure (SMILES),"max response, negative = inhibition"
10,CCOC(=O)C(C(=O)Nc1ccc(C)cc1)C1CCCCC1 (stereo unspecified),inactive: 0%
2,Cc1cc(-n2c(SCC(=O)Nc3ccc(Br)cc3)nc3n[nH]c(C)c3c2=N)ccc1Cl,inactive: -17.1%
14,COCCCn1c(=N)c(C(=O)NCC2CCCO2)cc2c(=O)n3ccccc3nc21 (stereo unspecified),inactive: 0%
22,O=C(OC1CC2CC1[C@H]1CCCCN1C2=O)N1CCOCC1 (stereo partly specified),inactive: 3.81%
8,O=C(O)CCCCCN1C(=O)CSC1=S,inactive: 0%
13,Cn1cnnc1Sc1ccc(S(C)(=O)=O)cc1[N+](=O)[O-],active: -78.8%
14,C=CCOc1cccc(C2C(C(=O)c3ccc(C)o3)=C(O)C(=O)N2CCN(C)C)c1 (stereo unspecified),active: -63.5%

# The list continues:

row,Structure (SMILES),"max response, negative = inhibition"
1,CCOc1cccc(CN(C)CC2CCCN(CCc3ccc(Cl)cc3)C2)c1O (stereo unspecified),inconclusive: -32.3%
2,COc1ccc(NC(=O)COC(=O)c2ccc(S(=O)(=O)N(C)c3ccccc3OC)cc2)cc1,inactive: 2.25%
3,O=C(N/N=C/c1sc(=O)n(-c2ccccc2)c1Cl)c1ccccc1,inconclusive: -43.2%
4,COc1ccc(-c2ccc(OC)cc2)cc1,inconclusive: -35.6%
5,CN(C)CCCNC(=O)C[C@H]1C[C@H](C(=O)N2CCCCC2)[C@@]2(CCc3ccccc3)c3[nH]c4cc(-c5ccco5)ccc4c3CCN2C1=O,inactive: -24.9%
6,Clc1ccc(-n2nnnc2SCc2c(-c3ccccc3)nc3sccn23)cc1,inactive: -1%
7,COC(=O)c1ccc(CC(=O)c2c(C)cc(O)cc2O)o1,inconclusive: -39.3%
8,FC(F)(F)c1cc(-c2ccccc2)nc(NCc2cccnc2)n1,inconclusive: -35.9%
9,NC(=O)CN1N=C(c2cc(Cl)sc2Cl)CSC1=O,inconclusive: -32.4%
10,Cc1cc(NC(=O)CN2CCC(O)(c3cccc(F)c3)CC2)no1,inconclusive: -49%
11,C/C(=N\NC(=O)CSCc1ccc([N+](=O)[O-])cc1)c1ccccc1O,inconclusive: -33.5%
12,Cc1ccc(Cn2c(=S)[nH]c3ccc(N4CCOCC4)cc3c2=O)o1,inconclusive: -32.7%
13,O=C(N/N=C\c1cccc(Cl)c1)c1ccc(Cn2cc(Br)c([N+](=O)[O-])n2)o1,inactive: 41.4%
14,O=C(O)c1ccc(NC2=C/C(=N/S(=O)(=O)c3ccccc3)c3ccccc3C2=O)cc1,active: -91.6%
15,C=CCOc1c(CNn2cn[nH]c2=S)cccc1OC,inconclusive: -39.1%
16,NS(=O)(=O)c1ccc(CCNCc2cccnc2)cc1,inconclusive: -38.2%
17,CCOc1ccc(N/C(N)=N/c2nc(C)cc(C)n2)cc1,inactive: 3.4%
18,CCOC(=O)/C(C#N)=C1\CC2CCC1(C)C2(C)C (stereo unspecified),inconclusive: -34.3%
19,CC(C)Oc1ccccc1/C=N/NC(=O)c1ccccc1Cl,inconclusive: -41.1%
20,CCCCCCN=CC1=C(O)CC(C)(C)CC1=O,inconclusive: -32.6%
21,COc1ccc(CCC(=O)OCC(=O)Nc2sccc2C(N)=O)cc1,inconclusive: -40%
22,CN(C)S(=O)(=O)c1ccc(C(=O)Nc2ccc(CCC(=O)N3CCCC3)cc2)cc1,inconclusive: -31.3%
23,CCc1cc(=O)oc2cc(OC(C)C(=O)NCc3ccccn3)ccc12 (stereo unspecified),inactive: -0.987%

row,Structure (SMILES),"max response, negative = inhibition"
1,CCOC(=O)C1=C(C)C(c2ccccc2OC)NC(=O)N1 (stereo unspecified),inconclusive: -42.5%
2,CSCC[C@H](NC(=O)c1cccc([N+](=O)[O-])c1C)c1nc2ccccc2[nH]1,inconclusive: -30.3%
3,CC1=C(C(=O)Nc2ccccc2C(=O)N2CCC(C)CC2)SCCO1,inactive: -18.1%
4,CC1CCN(CCCCOc2ccccc2F)CC1,active: -81.9%
5,Cn1c(=O)c2c(nc(Oc3ccccc3Cl)n2C)n(C)c1=O,inactive: -25.3%
6,COc1ccc(/C=C/C2=CC(C)(C)NC(=S)N2)cc1OC,inconclusive: -30.5%
7,Cc1ccc2oc(=O)c3cc(C(=O)NCCN4CCc5ccccc5C4)sc3c2c1,inconclusive: -39.9%
8,CN(C)CCCNc1ncnc2sc(-c3ccccc3)cc12,inconclusive: -41.5%
9,CCCCCCCCC(=O)N1C(C)CCC1C (stereo unspecified),inactive: 2.6%
10,COc1ccccc1CNC(=O)c1cc(C)nc2ccccc12,inactive: 1.05%
11,CC(Oc1ccccc1)C(=O)N(CCC1=CCCCC1)c1c(N)n(Cc2ccccc2)c(=O)[nH]c1=O (stereo unspecified),inactive: -6.8%
12,CC(C)(C)c1cc(CCC(=O)NNC(=S)NC(=O)c2ccccc2)cc(C(C)(C)C)c1O,active: -78.5%
13,COc1cc(F)c(C2=CC(=O)C[C@H](c3ccc(F)cc3)C2)cc1F,inconclusive: -36.7%
14,c1cnc2ccc(C(c3nnnn3C3CCCC3)N3CCN(c4nc5ccccc5s4)CC3)cc2c1 (stereo unspecified),inactive: -14.9%
15,CCOC(=O)C1(CC2CC2)CCN(Cc2ccc(C(=O)OC)cc2)CC1,active: -120%
16,Cc1ccccc1C(=O)Nc1cccc(NC(=O)Cn2cnc3c(=O)n(C)c(=O)n(C)c32)c1,inactive: -26.8%
17,Cc1cccc2nc(CNc3ccc(F)cc3)cn12,inconclusive: -44.6%
18,CN1CCCC(C)(C(=O)Nc2cccc(Oc3ccccc3)c2)C1 (stereo unspecified),inconclusive: -42.1%
19,COCCNC(=O)/C(C#N)=C/c1ccc(O)c([N+](=O)[O-])c1,inconclusive: -31.9%
20,COc1ccc(C2=NN(C(=O)CCC(=O)O)C(c3ccc(Br)cc3)C2)cc1 (stereo unspecified),inconclusive: -40.3%
21,COc1cc(CN2CCC(C(=O)N3CCCC(C)C3)CC2)cc(Br)c1O (stereo unspecified),inconclusive: -32%
22,COc1ccc(C(=O)C(CN2CCOCC2)c2ccccc2)cc1 (stereo unspecified),inactive: -22.2%
